For this experiment, the target named is CydA with C-terminal His6-tag (subunit of cytochrome bd from Escherichia coli) (E. coli) (UniProt P0ABJ9). Description: affinity purification with mass spectrometry; His6-tagged cytochrome bd (tag on CydA) purified over HisTrap Nickel column and Superdex 200, loaded on Native-PAGE, band excised, in-gel digestion with trypsin, chymotrypsin or GluC, LC-MS/MS.

The chains behind the UniProt entries cited, without tags or fusion partners. Where a name states a change or a piece, a line headed by the entry shows the natural chain unless it says otherwise.
UniProt P0ABJ9: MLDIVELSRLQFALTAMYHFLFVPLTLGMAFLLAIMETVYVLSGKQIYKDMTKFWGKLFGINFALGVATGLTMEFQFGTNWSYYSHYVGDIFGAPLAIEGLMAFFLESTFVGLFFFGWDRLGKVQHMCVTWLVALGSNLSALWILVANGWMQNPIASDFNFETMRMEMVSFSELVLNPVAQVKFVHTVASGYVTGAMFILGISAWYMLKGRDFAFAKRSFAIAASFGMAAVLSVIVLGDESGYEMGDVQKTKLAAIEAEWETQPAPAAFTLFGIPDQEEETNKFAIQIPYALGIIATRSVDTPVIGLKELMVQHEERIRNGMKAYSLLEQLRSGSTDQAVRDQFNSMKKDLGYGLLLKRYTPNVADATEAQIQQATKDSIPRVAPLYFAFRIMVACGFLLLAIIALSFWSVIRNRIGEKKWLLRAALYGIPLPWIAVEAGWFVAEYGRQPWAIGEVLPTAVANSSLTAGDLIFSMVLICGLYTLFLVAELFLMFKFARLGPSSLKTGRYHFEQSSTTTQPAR

No constants are given. Whether binding was seen depends on the method and setting. Binding seen in cells or lysates may run through a third protein. These calls come from enrichment with a bait or labelling near it, and not all partners need be listed.

On to MWYFAWILGTLLACSFGVITALALEHVESGKAGQEDI [CydX from E. coli], for which the binding result was “binds”.

Values taken from publication PMC4899803.
